Source: PubChem BioAssay AID493246 (Drosophila RNAi Screening Center, 2011)
The screen tested about 21,000 reagents; shown is a random part of those that have a named target and a result. In the full data, 429 (2%) got an active call. 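Values are raw and not normalised between plates; calls rest on per-plate z-scores that were not deposited.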 Reagents against one gene are numbered here. Names joined by + are all predicted targets of the reagent. Not stated in the record: the amount of reagent, the time to read-out.

Purpose: 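Genes fly cells need to grow and stay alive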 (primary screen)
System: Drosophila Kc and S2R+ cells
Knock-down reagent: long dsRNA against Drosophila genes
Measurement: 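Raw, unnormalised count of remaining cells in each well; per-plate z-scores of cell number underlie the calls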
Scale: Kc cell number and S2R+ cell number: higher = more cells remaining
Rule for the call: 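Active when the per-plate z-score of cell number is 3 or more in the direction of fewer cells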

{"gene": "CG32462", "dsRNA no.": 1, "Kc cell number, rep 1": 1.57e6, "Kc cell number, rep 2": 1.59e6, "S2R+ cell number, rep 1": 1.39e6, "S2R+ cell number, rep 2": 1.41e6, "outcome": "inactive"}
{"gene": "CG32221", "dsRNA no.": 1, "Kc cell number, rep 1": 1.37e6, "Kc cell number, rep 2": 1.47e6, "S2R+ cell number, rep 1": 1.09e6, "S2R+ cell number, rep 2": 1.27e6, "outcome": "inactive"}
{"gene": "hebe", "dsRNA no.": 1, "Kc cell number, rep 1": 1.56e6, "Kc cell number, rep 2": 1.64e6, "S2R+ cell number, rep 1": 1.01e6, "S2R+ cell number, rep 2": 1.14e6, "outcome": "inactive"}
{"gene": "hebe", "dsRNA no.": 2, "Kc cell number, rep 1": 1.52e6, "Kc cell number, rep 2": 1.50e6, "S2R+ cell number, rep 1": 1.07e6, "S2R+ cell number, rep 2": 1.20e6, "outcome": "inactive"}
{"gene": "CG15841 (retired record) + Acp33A", "dsRNA no.": 1, "Kc cell number, rep 1": 1.56e6, "Kc cell number, rep 2": 1.67e6, "S2R+ cell number, rep 1": 1.33e6, "S2R+ cell number, rep 2": 1.55e6, "outcome": "inactive"}
{"gene": "CG33308", "dsRNA no.": 1, "Kc cell number, rep 1": 1.47e6, "Kc cell number, rep 2": 1.47e6, "S2R+ cell number, rep 1": 8.84e5, "S2R+ cell number, rep 2": 1.06e6, "outcome": "inactive"}
{"gene": "CG8087", "dsRNA no.": 1, "Kc cell number, rep 1": 1.50e6, "Kc cell number, rep 2": 1.61e6, "S2R+ cell number, rep 1": 1.18e6, "S2R+ cell number, rep 2": 1.25e6, "outcome": "inactive"}
{"gene": "schuy (schumacher-levy)", "dsRNA no.": 1, "Kc cell number, rep 1": 1.60e6, "Kc cell number, rep 2": 1.67e6, "S2R+ cell number, rep 1": 1.36e6, "S2R+ cell number, rep 2": 1.46e6, "outcome": "inactive"}
{"gene": "l(2)41Ab (lethal (2) 41Ab)", "dsRNA no.": 1, "Kc cell number, rep 1": 1.19e6, "Kc cell number, rep 2": 1.38e6, "S2R+ cell number, rep 1": 1.11e6, "S2R+ cell number, rep 2": 1.22e6, "outcome": "inactive"}
{"gene": "jub (Ajuba LIM protein)", "dsRNA no.": 1, "Kc cell number, rep 1": 4.28e5, "S2R+ cell number, rep 1": 6.31e5, "outcome": "inactive"}
{"gene": "Rga (Regena)", "dsRNA no.": 1, "Kc cell number, rep 1": 1.41e6, "Kc cell number, rep 2": 1.54e6, "S2R+ cell number, rep 1": 1.32e6, "S2R+ cell number, rep 2": 1.43e6, "outcome": "inactive"}
{"gene": "CG14120", "dsRNA no.": 1, "Kc cell number, rep 1": 1.40e6, "Kc cell number, rep 2": 1.46e6, "S2R+ cell number, rep 1": 1.20e6, "S2R+ cell number, rep 2": 1.28e6, "outcome": "inactive"}
{"gene": "ClC-b (Chloride channel-b)", "dsRNA no.": 1, "Kc cell number, rep 1": 1.61e6, "Kc cell number, rep 2": 1.75e6, "S2R+ cell number, rep 1": 1.36e6, "S2R+ cell number, rep 2": 1.52e6, "outcome": "inactive"}
{"gene": "TTLL6B (Tubulin tyrosine ligase-like 6B)", "dsRNA no.": 1, "Kc cell number, rep 1": 1.55e6, "Kc cell number, rep 2": 1.60e6, "S2R+ cell number, rep 1": 9.43e5, "S2R+ cell number, rep 2": 1.07e6, "outcome": "inactive"}
{"gene": "beat-IV (beaten path IV)", "dsRNA no.": 1, "Kc cell number, rep 1": 1.57e6, "Kc cell number, rep 2": 1.64e6, "S2R+ cell number, rep 1": 1.26e6, "S2R+ cell number, rep 2": 1.33e6, "outcome": "inactive"}
{"gene": "beat-IV (beaten path IV)", "dsRNA no.": 2, "Kc cell number, rep 1": 1.63e6, "Kc cell number, rep 2": 1.61e6, "S2R+ cell number, rep 1": 9.67e5, "S2R+ cell number, rep 2": 1.10e6, "outcome": "inactive"}
{"gene": "Cp36 (Chorion protein 36)", "dsRNA no.": 1, "Kc cell number, rep 1": 1.53e6, "Kc cell number, rep 2": 1.53e6, "S2R+ cell number, rep 1": 1.09e6, "S2R+ cell number, rep 2": 1.21e6, "outcome": "inactive"}
{"gene": "mrn (marionette)", "dsRNA no.": 1, "Kc cell number, rep 1": 1.59e6, "Kc cell number, rep 2": 1.55e6, "S2R+ cell number, rep 1": 1.35e6, "S2R+ cell number, rep 2": 1.33e6, "outcome": "inactive"}
{"gene": "Vang (Van Gogh)", "dsRNA no.": 1, "Kc cell number, rep 1": 1.80e6, "Kc cell number, rep 2": 1.81e6, "S2R+ cell number, rep 1": 1.39e6, "S2R+ cell number, rep 2": 1.55e6, "outcome": "inactive"}
{"gene": "Dhc98D (Dynein heavy chain at 89D)", "dsRNA no.": 1, "Kc cell number, rep 1": 1.49e6, "Kc cell number, rep 2": 1.55e6, "S2R+ cell number, rep 1": 1.02e6, "S2R+ cell number, rep 2": 1.13e6, "outcome": "inactive"}
{"gene": "CG14551", "dsRNA no.": 1, "Kc cell number, rep 1": 1.45e6, "Kc cell number, rep 2": 1.63e6, "S2R+ cell number, rep 1": 1.06e6, "S2R+ cell number, rep 2": 1.17e6, "outcome": "inactive"}

Copied from the list.
Under “outcome”, Rga (Regena) has inactive
Result for jub (Ajuba LIM protein) in “outcome”: inactive
